Measurements: doi:10.1101/2023.05.26.542463 (bioRxiv, 2023)
No constants are given. Whether binding was seen depends on the method and setting. For some of these results: In cells and extracts the contact can be indirect. Some results given as binding are weak or reduced against the parent protein; the word gives no strength.

The chains behind the UniProt entries cited, without tags or fusion partners. Where a name states a change or a piece, a line headed by the entry shows the natural chain unless it says otherwise. A line that says so, or that is headed by a name, gives the form on record, which may keep a tag or linker.
SERCA2a labelled with Cer (donor) (P16615, form named): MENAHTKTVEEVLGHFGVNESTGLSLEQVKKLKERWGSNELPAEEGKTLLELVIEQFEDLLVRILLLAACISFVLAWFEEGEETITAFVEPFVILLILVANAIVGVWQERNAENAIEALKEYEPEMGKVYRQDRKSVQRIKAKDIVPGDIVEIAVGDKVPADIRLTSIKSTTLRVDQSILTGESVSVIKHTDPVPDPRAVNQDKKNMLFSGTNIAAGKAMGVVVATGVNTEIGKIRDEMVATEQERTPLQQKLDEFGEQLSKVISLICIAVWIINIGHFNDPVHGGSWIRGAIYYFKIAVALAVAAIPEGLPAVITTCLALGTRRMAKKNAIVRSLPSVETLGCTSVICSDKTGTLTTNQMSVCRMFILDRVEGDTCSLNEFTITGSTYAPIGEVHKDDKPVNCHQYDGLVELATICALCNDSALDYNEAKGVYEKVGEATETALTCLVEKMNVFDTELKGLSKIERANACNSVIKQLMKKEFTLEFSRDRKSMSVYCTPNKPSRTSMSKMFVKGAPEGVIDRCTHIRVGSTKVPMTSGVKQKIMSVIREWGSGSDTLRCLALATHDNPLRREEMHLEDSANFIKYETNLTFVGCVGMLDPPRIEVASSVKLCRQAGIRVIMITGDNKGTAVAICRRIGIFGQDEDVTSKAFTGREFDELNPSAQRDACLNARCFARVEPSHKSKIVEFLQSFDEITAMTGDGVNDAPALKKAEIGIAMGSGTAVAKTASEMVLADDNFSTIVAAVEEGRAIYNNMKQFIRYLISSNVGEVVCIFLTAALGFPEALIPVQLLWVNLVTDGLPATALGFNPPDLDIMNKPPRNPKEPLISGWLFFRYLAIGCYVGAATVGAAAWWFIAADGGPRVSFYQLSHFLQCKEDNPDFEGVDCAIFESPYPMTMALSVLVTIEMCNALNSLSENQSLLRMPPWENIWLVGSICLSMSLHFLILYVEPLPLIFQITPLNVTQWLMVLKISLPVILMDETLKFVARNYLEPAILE

B1: WT-PLB (phospholamban, wild type), as expressed for immunoblots (natural protein)
chain: MEKVQYLTRSAIRRASTIEMPQQARQKLQNLFINFCLILICLLLICIIVMLL
B2: R14del-PLB (phospholamban with in-frame deletion of arginine 14), as expressed for immunoblots (natural protein)
chain: MEKVQYLTRSAIRASTIEMPQQARQKLQNLFINFCLILICLLLICIIVMLL

What was measured:
[1] = target: R9C-PLB labelled with mCer (donor) or YFP (acceptor) (human) (UniProt P26678); assay: FRET or BRET
[2] = target: WT-PLB labelled with mCer (donor) or YFP (acceptor) (human) (UniProt P26678); assay: FRET or BRET
[3] = target: R14del-PLB labelled with mCer (donor) or YFP (acceptor) (human) (UniProt P26678); assay: FRET or BRET
[4] = target: SERCA2a labelled with Cer (donor) (UniProt P16615); assay: FRET or BRET
[5] = target: WT-PLB (phospholamban, wild type), as expressed for immunoblots (human) (UniProt P26678); assay: SDS-PAGE and immunoblot of oligomers
[6] = target: R14del-PLB (phospholamban with in-frame deletion of arginine 14), as expressed for immunoblots (human) (UniProt P26678); assay: SDS-PAGE and immunoblot of oligomers

binding [2] | binding [4] | binding [5] | other results | Molecule
binds | – | – | binding [1]: binds | R9C-PLB labelled with mCer (donor) or YFP (acceptor) (from UniProt P26678 1-52)
binds | binds | – | binding [3]: binds | R14del-PLB labelled with mCer (donor) or YFP (acceptor) (from UniProt P26678 1-52)
binds | binds | – | – | WT-PLB labelled with mCer (donor) or YFP (acceptor) (from UniProt P26678 1-52)
– | – | binds | – | B1
– | – | binds | binding [6]: binds | B2
